# Data: PubChem BioAssay AID504834 (National Center for Advancing Translational Sciences (NCATS), 2011)
# Hit rate of the full screen: of about 320,000 compounds, about 22,000 (6.9%) were called active. The shares of active, inactive and inconclusive entries below differ from those in the screen. Calls follow the shape of the dose curve; as a rule, active = well fitted inhibition curve with a large enough effect; inconclusive = small, poorly fitted or top-dose-only effect, or another doubt; inactive = no such curve, though single readings can be large or run the other way. Potencies of inconclusive entries are doubtful fits and often do not repeat.
# Test: Primary qHTS for delayed death inhibitors of the malarial parasite plastid, 96 hour incubation
# Conditions: P. falciparum luciferase reporter growth; series mostly up to 28.7 µM; activity change, negative = inhibition: at the top concentration
# In short: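 96 h incubation, 37 C, 5% CO2, of luciferase-reporter P. falciparum-infected RBCs (2% hematocrit, 0.05% parasitemia final) with test compounds; endpoint luminescence.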
# % is scaled to controls: 0 for no effect and ±100 for the full control effect; potency is read from the fitted curve at half-maximal effect.
SMILES,"activity change, negative = inhibition",Potency
CC(=O)N(c1ccccc1)C1CCCC1,inactive: -0.0404%,–
O=c1[nH]c(CSc2nnc3ccccn23)nc2cc(C(F)(F)F)ccc12,inactive: 0.615%,–
COc1ccc(Cc2nnc(SCC(=O)Nc3ccccc3C)n(N)c2=O)cc1,inactive: 1.73%,–
N#CC1(c2c(O)nc3n(c2=O)CCCS3)CCCCC1,–,"inconclusive: 0.0828 µM [inhibitor, full curve, poor fit]"
O=C(N/N=C/c1cccs1)c1ccccn1,inactive: 406%,–
O=C(c1cccnc1)N1CCN(c2ccc3ccccc3n2)CC1,–,"inconclusive: 14.7 µM [inhibitor, partial curve, poor fit]"
CCCc1ccc(-c2cc(C(=O)N/N=C/c3ccc([N+](=O)[O-])o3)c3ccccc3n2)cc1,–,active: 1.65 µM
CCCCN(C(=O)C1CC(=O)N(c2ccc(C)cc2)C1)c1c(N)n(CCC)c(=O)[nH]c1=O (stereo not drawn),inactive: 11.9%,–
C[C@H](NC(N)=O)C(=O)Nc1ccc2c(c1)OCO2,inactive: 95.1%,–
CCOC(=O)c1c(N)sc(C(O)(C(F)(F)F)C(F)(F)F)c1-c1ccc(Cl)cc1,–,"inconclusive: 11.7 µM [inhibitor, single point]"
O=C(CSc1nnc(-c2c[nH]c3ccccc23)o1)NCC1CCCO1 (stereo not drawn),–,"inconclusive: 3.29 µM [inhibitor, partial curve]"
CC(C)(C)C(=O)OC/C(N)=N/OC(=O)c1ccc(Cl)c(Cl)c1,–,"inconclusive: 18.5 µM [inhibitor, single point]"
Cc1ccn2c(=O)nc(SCC(=O)NCc3ccccc3)nc2c1,inactive: 7.14%,–
COC(=O)c1c(NC(=O)CSc2ncnc3[nH]ncc23)sc2c1CCC2,inactive: -21.2%,–
CN(C)S(=O)(=O)c1cccc(-c2nn(-c3ccccc3)cc2/C=C(/C#N)C(=O)NCc2ccco2)c1,–,"inconclusive: 18.5 µM [inhibitor, single point]"
O=C(CN1C(=O)/C(=C\c2ccccc2F)SC1=S)Nc1nc2ccccc2s1,–,"inconclusive: 20.8 µM [inhibitor, single point]"
CCOC(=O)C1=C(c2ccccc2)Nc2ncnn2C1c1cc(OC)cc(OC)c1OC (stereo not drawn),–,"inconclusive: 20.8 µM [inhibitor, single point]"
O=C1NC(=O)C(CCc2ccncc2)(Cc2ccc(OCc3ccccc3)cc2)C(=O)N1,–,"inconclusive: 0.0041 µM [inhibitor, full curve, poor fit]"
Cc1ccc(NC(=O)c2ccc(OC(F)F)cc2)cc1S(=O)(=O)N(C)C,–,"inconclusive: 18.5 µM [inhibitor, single point]"
CSc1ccccc1OCc1cc(C(=O)NC2CCOC(C)(C)C2)no1 (stereo not drawn),–,"inconclusive: 10.4 µM [inhibitor, single point]"
CCCCNC(=O)c1ccc(CS(=O)(=O)c2ccc(OC)cc2)o1,inactive: -0.0311%,–
CN=C1SC(C(=O)Nc2ccccc2Cl)CC(=O)N1c1ccc(OC(F)(F)Cl)cc1 (stereo not drawn),inactive: 0%,–
COc1ccccc1C(=O)NNC(=O)c1ccccc1[N+](=O)[O-],–,"inconclusive: 18.5 µM [inhibitor, single point]"
CCC1(C)OCC(Cn2c3ccccc3c3ccccc32)O1 (stereo not drawn),–,"inconclusive: 10.4 µM [inhibitor, single point]"

SMILES,"activity change, negative = inhibition",Potency
O=C(Cc1ccccc1)NC(Nc1cccc2ccccc12)C(Cl)(Cl)Cl (stereo not drawn),–,"inconclusive: 10.4 µM [inhibitor, single point]"
CC(C)N1C(=O)c2ccccc2C1C(=O)NC1CCCCCC1 (stereo not drawn),–,active: 0.738 µM
CCOc1ccc(/C=N/NC(=O)CC(=O)Nc2ccc(Cl)c(Cl)c2)cc1,–,"inconclusive: 1.85 µM [inhibitor, partial curve, poor fit]"
COc1ccc(CCNC(=O)CSc2nnc3ccc(-c4ccccn4)nn23)cc1,inactive: 54.8%,–
Cc1[nH]c(=O)[nH]c(=O)c1/C=N/NC(=O)[C@@H](NC(=O)OC(C)(C)C)C(C)C,inactive: 0%,–
O=[N+]([O-])c1ccc(Nc2nc(N/N=C\c3ccc4c(c3)OCO4)nc(N3CCCCC3)n2)cc1,–,active: 2.62 µM
O=C(Nc1ccccc1OC(F)F)c1ccc(S(=O)(=O)N2CCOCC2)cc1,inactive: 26.4%,–
Cc1ncoc1C(=O)N1CCCC(C(=O)c2cccc(C(F)(F)F)c2)C1 (stereo not drawn),–,"inconclusive: 10.4 µM [inhibitor, partial curve, poor fit]"
COc1ccc(OC)c(NC(=O)CN(c2ccc(C(C)C)cc2)S(=O)(=O)c2c(C)noc2C)c1,–,active: 10.4 µM
CC1(c2ccc(Cl)cc2)NC(=O)N(CC(=O)NC(=O)NCc2ccco2)C1=O (stereo not drawn),–,"inconclusive: 0.657 µM [inhibitor, full curve, poor fit]"
Cc1ccc(N2C(=O)/C(=C/c3ccco3)SC2=S)cc1,inactive: -20.1%,–
COc1ccc(C(=O)NC2(C(F)(F)F)C(=O)Nc3c2c(=O)[nH]c(=O)n3CCc2ccc(OC)c(OC)c2)cc1 (stereo not drawn),inactive: 103%,–
CCCCNC(c1ccccc1)c1ccncc1 (stereo not drawn),–,"inconclusive: 0.208 µM [inhibitor, full curve]"
CN(Cc1nccn1C)C(=O)CC1C(=O)NCCN1Cc1ccccc1C(F)(F)F (stereo not drawn),–,"inconclusive: 11.7 µM [inhibitor, single point]"
Oc1c(C=NCc2ccccc2)sc2ccccc12,inactive: -3.49%,–
CN(C)CCCNC(=S)Nc1ccc(-c2ccccc2)cc1,–,"inconclusive: 11.7 µM [inhibitor, partial curve, poor fit]"
COc1ccc(-c2csc(N)n2)cc1,inactive: 85.1%,–
OC(COc1ccc2cc(Br)ccc2c1)CN1CCCC1 (stereo not drawn),inactive: 30.6%,–
CC(C)CCNC(=O)c1onc(CSc2ccc(F)c(F)c2)c1C(=O)NCCC(C)C,–,active: 10.4 µM
O=C(O)c1ccccc1C(c1ccc(O)cc1)c1ccc(O)cc1,inactive: -0.929%,–
Nc1ccc(-c2nc3ccc(-c4nc5ccccc5o4)cc3[nH]2)cc1,inactive: 24.2%,–
c1ccc(-c2noc(-c3cccc4ccccc34)n2)cc1,inactive: 344%,–
CC(=O)Oc1ccc(-c2csc(Nc3cccc(C)n3)n2)cc1,–,"inconclusive: 13.1 µM [inhibitor, partial curve]"
COc1cc2c(cc1OC)C1O[C@](c3ccsc3)(C2)Oc2c1c(=O)oc1ccc(F)cc21,–,"inconclusive: 0.536 µM [inhibitor, full curve, poor fit]"

# Shown as tab-separated lines: 10 of the compounds above.
SMILES	activity change, negative = inhibition	Potency
O=C(N/N=C/c1cccs1)c1ccccn1	inactive: 406%	–
O=C(c1cccnc1)N1CCN(c2ccc3ccccc3n2)CC1	–	inconclusive: 14.7 µM [inhibitor, partial curve, poor fit]
Cc1ccn2c(=O)nc(SCC(=O)NCc3ccccc3)nc2c1	inactive: 7.14%	–
COC(=O)c1c(NC(=O)CSc2ncnc3[nH]ncc23)sc2c1CCC2	inactive: -21.2%	–
CSc1ccccc1OCc1cc(C(=O)NC2CCOC(C)(C)C2)no1 (stereo not drawn)	–	inconclusive: 10.4 µM [inhibitor, single point]
CCCCNC(=O)c1ccc(CS(=O)(=O)c2ccc(OC)cc2)o1	inactive: -0.0311%	–
Oc1c(C=NCc2ccccc2)sc2ccccc12	inactive: -3.49%	–
COc1ccc(-c2csc(N)n2)cc1	inactive: 85.1%	–
OC(COc1ccc2cc(Br)ccc2c1)CN1CCCC1 (stereo not drawn)	inactive: 30.6%	–
O=C(O)c1ccccc1C(c1ccc(O)cc1)c1ccc(O)cc1	inactive: -0.929%	–

# Exported with bars between the fields: entries from further up.
SMILES | activity change, negative = inhibition | Potency
c1ccc(-c2noc(-c3cccc4ccccc34)n2)cc1 | inactive: 344% | –
CC(=O)Oc1ccc(-c2csc(Nc3cccc(C)n3)n2)cc1 | – | inconclusive: 13.1 µM [inhibitor, partial curve]
